Values from PubChem BioAssay AID1259297 (Sanger Institute, 2017).
The whole screen tested 794 reagents; shown is an unselected part. In the full data, 13 (1.6%) are marked active. 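Calls reflect knock-down without drug only; drug synergy is judged separately, with scores above 0.15 counted as synergy.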 A number with no mark means an inactive call. No viability above 1 is reported: the scale is capped. Further read-outs or replicates are left out here. Not given: the amount of reagent, the time to read-out.

Test: 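Kinases whose loss kills cells on their own or with targeted drugs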 (primary screen)
System: human RCM1 colorectal cancer cell line
Reagent: siRNA pool against human genes
Conditions: separate arms: DMSO vehicle, or one anchor drug at a mild dose: BYL719 1 µM, cetuximab 5 µg/ml, trametinib 10 nM
Measured: 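Viability per well relative to a non-targeting pool, mean of replicates; robust z-score for knock-down alone; synergy score with BYL719, cetuximab or trametinib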
Scale: viability z-score, knock-down alone: higher = more viable cells than non-targeting controls; viability, knock-down alone (DMSO): higher = more viable cells; synergy score with trametinib: higher = stronger combined killing with trametinib; synergy score with BYL719: higher = stronger combined killing with BYL719
Call rule: 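Called essential if knock-down without drug gives a viability robust z-score under -3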
Meaning of the calls: active = essential when knocked down alone; inactive = no clear loss of viability alone

viability z-score, knock-down alone | viability, knock-down alone (DMSO) (fraction of control) | synergy score with trametinib | synergy score with BYL719 | Gene
0.1 | 0.926 | -0.0197 | 0.173 | GRK4 (GeneID 2868)
0.0928 | 0.925 | -0.00609 | -0.081 | CAMK1G (GeneID 57172)
-3.85 (active) | 0.559 | -0.0263 | -0.0685 | PLK1 (GeneID 5347)
0.887 | 0.999 | 0.0401 | -0.0627 | PCK2 (GeneID 5106)
0.9 | 1 | -0.0683 | -0.0217 | NEK1 (GeneID 4750)
0.43 | 0.956 | 0.0147 | 0.00543 | STK3 (GeneID 6788)
0.378 | 0.952 | 0.0321 | -0.0205 | PIK3R2 (GeneID 5296)
0.9 | 1 | 0.0169 | 0.0315 | CAMK1D (GeneID 57118)
0.9 | 1 | 0.0537 | -0.0314 | FN1 (GeneID 2335)
0.658 | 0.978 | -0.0403 | -0.0498 | DGKD (GeneID 8527)
0.9 | 1 | -0.0287 | 0.016 | SOS2 (GeneID 6655)
0.9 | 1 | -0.115 | -0.0728 | TCF7L2 (GeneID 6934)
0.194 | 0.934 | -0.158 | -0.0147 | MAP3K13 (GeneID 9175)
0.889 | 0.999 | -0.0432 | -0.046 | TAF1 (GeneID 6872)
0.513 | 0.964 | 0.00745 | -0.0752 | SRC (GeneID 6714)
0.206 | 0.936 | 0.0263 | -0.0956 | TGFBR1 (GeneID 7046)
0.9 | 1 | 0.019 | -0.0456 | CALM1 (GeneID 801)
-0.465 | 0.873 | 0.012 | -0.0181 | DYRK3 (GeneID 8444)
0.846 | 0.995 | 0.0342 | 0.0193 | CERK (GeneID 64781)
0.00604 | 0.917 | 0.021 | -0.0204 | IGF1R (GeneID 3480)
0.468 | 0.96 | 0.084 | -0.0858 | GALK2 (GeneID 2585)
0.488 | 0.962 | -0.0674 | -0.108 | TBX3 (GeneID 6926)
-0.729 | 0.849 | -0.0822 | -0.101 | ATM (GeneID 472)
0.636 | 0.976 | 0.0747 | 0.125 | DGUOK (GeneID 1716)
-0.207 | 0.897 | -0.0351 | -0.0667 | FLT4 (GeneID 2324)
-1.52 | 0.775 | -0.264 | -0.113 | CDC73 (GeneID 79577)
0.33 | 0.947 | -0.0378 | -0.0393 | GUK1 (GeneID 2987)
-0.0268 | 0.914 | 0.0244 | -0.000887 | DUSP21 (GeneID 63904)
-0.115 | 0.906 | 0.000114 | 0.0022 | PKM (GeneID 5315)
-0.903 | 0.833 | -0.0252 | -0.0453 | PTK2B (GeneID 2185)
-1.11 | 0.814 | 0.0923 | -0.00935 | MAPKAPK3 (GeneID 7867)
-0.0923 | 0.908 | -0.0387 | -0.0532 | MVK (GeneID 4598)
0.663 | 0.978 | -0.0909 | 0.072 | ADPGK (GeneID 83440)
0.9 | 1 | 0.0698 | -0.0329 | MPP1 (GeneID 4354)
0.0973 | 0.925 | -0.0625 | -0.103 | RSKR (GeneID 124923)
-0.889 | 0.834 | 0.00439 | 0.0526 | PIK3R5 (GeneID 23533)
0.817 | 0.992 | 0.0667 | 0.0425 | EXOSC10 (GeneID 5394)
0.228 | 0.938 | 0.0573 | -0.121 | IKBKE (GeneID 9641)
0.9 | 1 | 0.182 | -0.0728 | WNK1 (GeneID 65125)
0.449 | 0.958 | -0.00229 | -0.112 | DGKI (GeneID 9162)
0.9 | 1 | -0.000705 | -0.0728 | ITK (GeneID 3702)
0.9 | 1 | -0.0294 | -0.0728 | UCK1 (GeneID 83549)
-0.705 | 0.851 | 0.1 | 0.0895 | IP6K3 (GeneID 117283)
0.367 | 0.951 | 0.0806 | -0.0215 | ATP23 (GeneID 91419)
0.9 | 1 | -0.00618 | -0.0401 | WHR1 (GeneID 8859)
0.9 | 1 | -0.105 | -0.0728 | BRSK2 (GeneID 9024)
0.457 | 0.959 | 0.0125 | 0.000805 | PKMYT1 (GeneID 9088)
-1.21 | 0.804 | -0.012 | 0.00599 | TSSK2 (GeneID 23617)
-0.928 | 0.83 | 0.00847 | 0.00188 | CALM3 (GeneID 808)
0.9 | 1 | 0.0796 | -0.0669 | CDKN1C (GeneID 1028)

Records listed above with an active call:
viability z-score, knock-down alone | viability, knock-down alone (DMSO) (fraction of control) | synergy score with trametinib | synergy score with BYL719 | Gene
-3.85 (active) | 0.559 | -0.0263 | -0.0685 | PLK1 (GeneID 5347)
